Holding throughout (experiment): glycan array binding signal (z-score within array); higher = stronger binding
Conditions in all cases: glycan notation: IUPAC condensed, linker removed

For test [1], the target named is Gal(b1-4)GlcNAc(b1-2)Man(a1-6)[Man(a1-3)]Man(b1-4)GlcNAc(b1-4)GlcNAc. Summed up: (§1)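 Glycan array data were curated from 3228 arrays in the Consortium for Functional Glycomics database and kept only where the protein sequence was available. Glycan names were converted to IUPAC-condensed notation, and columns mapping to the same glycan were averaged. The binding signal is a within-array Z-score, averaged across arrays of the same protein sequence at different concentrations or buffers and across linkers. Negative Z-scores can be read as non-binding.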

For test [2], the target named is Gal(b1-4)GlcNAc(b1-2)[Gal(b1-4)GlcNAc(b1-4)]Man(a1-3)[Gal(b1-4)GlcNAc(b1-2)Man(a1-6)]Man(b1-4)GlcNAc(b1-4)GlcNAc. Summed up: as §1
For test [3], the target named is Gal(b1-4)GlcNAc(b1-2)[Gal(b1-4)GlcNAc(b1-4)]Man(a1-3)[Gal(b1-4)GlcNAc(b1-2)[Gal(b1-4)GlcNAc(b1-6)]Man(a1-6)]Man(b1-4)GlcNAc(b1-4)GlcNAc. Summed up: as §1
Test [4] has as its target Gal(b1-4)GlcNAc(b1-2)[Gal(b1-4)GlcNAc(b1-4)]Man(a1-3)[GlcNAc(b1-4)][Gal(b1-4)GlcNAc(b1-2)Man(a1-6)]Man(b1-4)GlcNAc(b1-4)GlcNAc. In outline:
as §1

For test [5], the target named is Gal(b1-4)GlcNAc(b1-2)[Gal(b1-4)GlcNAc(b1-4)]Man(a1-3)[GlcNAc(b1-4)][Gal(b1-4)GlcNAc(b1-2)[Gal(b1-4)GlcNAc(b1-6)]Man(a1-6)]Man(b1-4)GlcNAc(b1-4)GlcNAc. Summed up:
as §1

Test [6] deals with Gal(b1-4)GlcNAc(b1-2)[Gal(b1-4)GlcNAc(b1-6)]Man(a1-6)[Gal(b1-4)GlcNAc(b1-2)Man(a1-3)]Man(b1-4)GlcNAc(b1-4)GlcNAc. In outline:
as §1

Test [7] has as its target Gal(b1-4)GlcNAc(b1-2)[Gal(b1-4)GlcNAc(b1-6)]Man(a1-6)[Gal(b1-4)GlcNAc(b1-2)Man(a1-3)]Man(b1-4)GlcNAc(b1-4)[Fuc(a1-6)]GlcNAc. Summed up:
as §1

Test [8] concerns the target Gal(b1-4)GlcNAc(b1-2)[Gal(b1-4)GlcNAc(b1-6)]Man(a1-6)[GlcNAc(b1-4)][Gal(b1-4)GlcNAc(b1-2)Man(a1-3)]Man(b1-4)GlcNAc(b1-4)GlcNAc. In outline: as §1
In test [9] the target is Gal(b1-4)GlcNAc(b1-2)[Gal(b1-4)GlcNAc(b1-6)]Man(a1-6)[GlcNAc(b1-4)][Gal(b1-4)GlcNAc(b1-2)[Gal(b1-4)GlcNAc(b1-4)]Man(a1-3)]Man(b1-4)GlcNAc(b1-4)[Fuc(a1-6)]GlcNAc. Summed up:
as §1

For test [10], the target named is Gal(b1-4)GlcNAc(b1-3)Gal(b1-3)GalNAc. In outline:
as §1

The target in test [11] is Gal(b1-4)GlcNAc(b1-3)Gal(b1-3)GlcNAc. In outline: as §1
In test [12] the target is Gal(b1-4)GlcNAc(b1-3)Gal(b1-4)Glc. Summed up:
as §1

For test [13], the target named is Gal(b1-4)GlcNAc(b1-3)Gal(b1-4)GlcNAc. In outline: as §1
In test [14] the target is Gal(b1-4)GlcNAc(b1-3)Gal(b1-4)GlcNAc(b1-2)Man(a1-3)[Gal(b1-4)GlcNAc(b1-3)Gal(b1-4)GlcNAc(b1-2)Man(a1-6)]Man(b1-4)GlcNAc(b1-4)GlcNAc. In outline:
as §1

Test [15] deals with Gal(b1-4)GlcNAc(b1-3)Gal(b1-4)GlcNAc(b1-2)Man(a1-3)[Gal(b1-4)GlcNAc(b1-3)Gal(b1-4)GlcNAc(b1-2)Man(a1-6)]Man(b1-4)GlcNAc(b1-4)[Fuc(a1-6)]GlcNAc. Summed up:
as §1

The target in test [16] is Gal(b1-4)GlcNAc(b1-3)Gal(b1-4)GlcNAc(b1-2)[Gal(b1-4)GlcNAc(b1-3)Gal(b1-4)GlcNAc(b1-6)]Man(a1-6)[Gal(b1-4)GlcNAc(b1-3)Gal(b1-4)GlcNAc(b1-2)Man(a1-3)]Man(b1-4)GlcNAc(b1-4)GlcNAc. Summed up: as §1
The target in test [17] is Gal(b1-4)GlcNAc(b1-3)Gal(b1-4)GlcNAc(b1-2)[Gal(b1-4)GlcNAc(b1-3)Gal(b1-4)GlcNAc(b1-6)]Man(a1-6)[Gal(b1-4)GlcNAc(b1-3)Gal(b1-4)GlcNAc(b1-2)Man(a1-3)]Man(b1-4)GlcNAc(b1-4)[Fuc(a1-6)]GlcNAc. Summed up: as §1
Test [18] concerns the target Gal(b1-4)GlcNAc(b1-3)Gal(b1-4)GlcNAc(b1-3)Gal(b1-4)GlcNAc. Summed up: as §1
Test [19] addresses Gal(b1-4)GlcNAc(b1-3)Gal(b1-4)GlcNAc(b1-3)Gal(b1-4)GlcNAc(b1-2)Man(a1-3)[Gal(b1-4)GlcNAc(b1-3)Gal(b1-4)GlcNAc(b1-3)Gal(b1-4)GlcNAc(b1-2)Man(a1-6)]Man(b1-4)GlcNAc(b1-4)GlcNAc. Summed up: as §1
In test [20] the target is Gal(b1-4)GlcNAc(b1-3)Gal(b1-4)GlcNAc(b1-3)Gal(b1-4)GlcNAc(b1-2)Man(a1-3)[Gal(b1-4)GlcNAc(b1-3)Gal(b1-4)GlcNAc(b1-3)Gal(b1-4)GlcNAc(b1-2)Man(a1-6)]Man(b1-4)GlcNAc(b1-4)[Fuc(a1-6)]GlcNAc. In outline: as §1
Test [21] has as its target Gal(b1-4)GlcNAc(b1-3)Gal(b1-4)GlcNAc(b1-3)Gal(b1-4)GlcNAc(b1-2)[Gal(b1-4)GlcNAc(b1-3)Gal(b1-4)GlcNAc(b1-3)Gal(b1-4)GlcNAc(b1-6)]Man(a1-6)[Gal(b1-4)GlcNAc(b1-3)Gal(b1-4)GlcNAc(b1-3)Gal(b1-4)GlcNAc(b1-2)Man(a1-3)]Man(b1-4)GlcNAc(b1-4)[Fuc(a1-6)]GlcNAc. In outline: as §1
The target in test [22] is Gal(b1-4)GlcNAc(b1-3)Gal(b1-4)GlcNAc(b1-3)Gal(b1-4)GlcNAc(b1-3)Gal(b1-4)GlcNAc(b1-2)Man(a1-3)[Gal(b1-4)GlcNAc(b1-3)Gal(b1-4)GlcNAc(b1-3)Gal(b1-4)GlcNAc(b1-3)Gal(b1-4)GlcNAc(b1-2)Man(a1-6)]Man(b1-4)GlcNAc(b1-4)GlcNAc. Summed up:
as §1

Some of the results follow.

B1: EUL D1A first (Oryza sativa) (protein)
chain: MFGFGHHHNQAPAAPSDPNQIFKIFCRANENYCLTVRDSAVVLAPVNPKDEHQHWFKDMRFSTKVKDGEGMPAFALVNKATGLAVKHSLGQSHPVKLVPFNPEYEDASVLWTESKDVGKGFRCIRMVNNTRLNLDAFHGDKDHGGVRDGTTVVLWEWCKGDNQSWKILPWGPEAHSSSPGAATILEQKLISEEDLNSAVDHHHHHH
As for B1, the “glycan array binding signal (z-score)” value in [1] is 0.395; in test [2], 0.319; in test [3], -0.94; in test [4], -1.53; in test [5] it was -1.34; in test [6], -1.05. The “glycan array binding signal (z-score)” value in [7] is 0.258; in [8], 0.138; in test [9], -1.4; in [10], -0.547; in test [11], -0.05; in test [12] it was -0.707. For the same molecule, the “glycan array binding signal (z-score)” value in test [13] was -0.979; in test [14] it was 1.9; in test [15] it was 0.464; in test [16], 0.639; in test [17], 0.423; in test [18], -0.567. Also, the “glycan array binding signal (z-score)” value in [19] is 0.655; in [20], -0.045; in test [21], 2.45; in [22], -0.009.

The values are drawn from the supplement of paper PMC8728848.
